Record: PubChem BioAssay AID743121 (NCATS, 2013)
Aim: 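Knock-downs that sensitise breast cancer cells to camptothecin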 (primary screen). Cells: MDA-MB-231 cells, a human breast cancer line. Reagents: single siRNA against human genes, 20 nM siRNA (0.8 pmol per well). Time to read-out: 120 h (drug added 48 h after transfection, read 72 h later). Challenge: camptothecin 20 nM (about EC30) for 72 h; vehicle 0.1% DMSO in parallel plates. Detection: 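Cell viability by ATP luminescence (CellTiter-Glo) as % of non-targeting siRNA wells, and the log2 ratio of viability without drug over viability with camptothecin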. Reading the numbers: log2 vehicle/camptothecin viability: higher = stronger sensitisation to camptothecin; viability with camptothecin and viability without drug: higher = more viable cells. Active means: 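Active genes have an RSA gene-level p-value below 0.001, computed from the ratios of their separate siRNAs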.
Here is an unselected part of about 26,000 deposited reagents. Of all reagents, 167 (0.63%) are marked active. 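Calls are per gene from RSA p-values that are not deposited; an individual active-marked siRNA can sensitise only weakly.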 Reagents against one gene are numbered here.

gene symbol | reagent | log2 vehicle/camptothecin viability | viability with camptothecin (% of control) | viability without drug (% of control) | call
SLITRK6 (SLIT and NTRK like family member 6) | 1 | -0.158 | 97.2 | 87.2 | inactive
SLITRK6 (SLIT and NTRK like family member 6) | 2 | -0.219 | 69.1 | 59.4 | inactive
SLITRK6 (SLIT and NTRK like family member 6) | 3 | -0.0915 | 57 | 53.5 | inactive
SLITRK6 (SLIT and NTRK like family member 6) | 4 | 0.0473 | 99 | 102 | inactive
KCNK17 (potassium two pore domain channel subfamily K member 17) | 1 | 0.247 | 59 | 70 | inactive
KCNK17 (potassium two pore domain channel subfamily K member 17) | 2 | 0.218 | 18.5 | 21.5 | inactive
KCNK17 (potassium two pore domain channel subfamily K member 17) | 3 | -0.497 | 52.9 | 37.5 | inactive
KCNK17 (potassium two pore domain channel subfamily K member 17) | 4 | -0.286 | 78.3 | 64.2 | inactive
IL20 (interleukin 20) | 1 | 0.000539 | 96.9 | 96.9 | inactive
IL20 (interleukin 20) | 2 | -0.086 | 87.7 | 82.6 | inactive
IL20 (interleukin 20) | 3 | -0.178 | 78.8 | 69.6 | inactive
IL20 (interleukin 20) | 4 | -0.412 | 30.9 | 23.2 | inactive
MGAM2 (maltase-glucoamylase 2 (putative)) | 1 | -0.274 | 81.1 | 67.1 | inactive
MGAM2 (maltase-glucoamylase 2 (putative)) | 2 | 0.306 | 67.1 | 82.9 | inactive
MGAM2 (maltase-glucoamylase 2 (putative)) | 3 | -0.148 | 53 | 47.8 | inactive
BAG5 (BAG cochaperone 5) | 1 | 0.0638 | 74.9 | 78.3 | inactive
BAG5 (BAG cochaperone 5) | 2 | -0.149 | 91.8 | 82.8 | inactive
BAG5 (BAG cochaperone 5) | 3 | -0.246 | 25.2 | 21.2 | inactive
BAG5 (BAG cochaperone 5) | 4 | -0.0801 | 59.7 | 56.4 | inactive
SMAD7 (SMAD family member 7) | 1 | -0.321 | 61.9 | 49.6 | inactive
SMAD7 (SMAD family member 7) | 2 | -0.152 | 66.1 | 59.4 | inactive
SMAD7 (SMAD family member 7) | 3 | 0.211 | 97.5 | 113 | inactive
SMAD7 (SMAD family member 7) | 4 | -0.406 | 117 | 88 | inactive
HCRT (hypocretin neuropeptide precursor) | 1 | -0.0185 | 105 | 104 | inactive
HCRT (hypocretin neuropeptide precursor) | 2 | -0.4 | 78.2 | 59.2 | inactive
HCRT (hypocretin neuropeptide precursor) | 3 | -0.0274 | 93.4 | 91.7 | inactive
HCRT (hypocretin neuropeptide precursor) | 4 | 0.0305 | 97 | 99.1 | inactive
PRKAG3 (protein kinase AMP-activated non-catalytic subunit gamma 3) | 1 | -0.471 | 72.5 | 52.3 | inactive
PRKAG3 (protein kinase AMP-activated non-catalytic subunit gamma 3) | 2 | -0.171 | 80.1 | 71.2 | inactive
PRKAG3 (protein kinase AMP-activated non-catalytic subunit gamma 3) | 3 | -0.821 | 61.7 | 34.9 | inactive
PRKAG3 (protein kinase AMP-activated non-catalytic subunit gamma 3) | 4 | -0.32 | 80.1 | 64.1 | inactive

5 entries from above, reformatted.
gene symbol	reagent	log2 vehicle/camptothecin viability	viability with camptothecin (% of control)	viability without drug (% of control)	call
IL20 (interleukin 20)	1	0.000539	96.9	96.9	inactive
IL20 (interleukin 20)	2	-0.086	87.7	82.6	inactive
IL20 (interleukin 20)	3	-0.178	78.8	69.6	inactive
IL20 (interleukin 20)	4	-0.412	30.9	23.2	inactive
MGAM2 (maltase-glucoamylase 2 (putative))	1	-0.274	81.1	67.1	inactive

The results go on.
gene symbol | reagent | log2 vehicle/camptothecin viability | viability with camptothecin (% of control) | viability without drug (% of control) | call
HELZ2 (helicase with zinc finger 2) | 1 | 0.212 | 69.9 | 80.9 | inactive
HELZ2 (helicase with zinc finger 2) | 2 | -0.236 | 115 | 97.6 | inactive
HELZ2 (helicase with zinc finger 2) | 3 | -0.575 | 93.6 | 62.8 | inactive
HELZ2 (helicase with zinc finger 2) | 4 | -0.219 | 112 | 95.9 | inactive
LONRF3 (LON peptidase N-terminal domain and ring finger 3) | 1 | -0.0831 | 90.3 | 85.2 | inactive
LONRF3 (LON peptidase N-terminal domain and ring finger 3) | 2 | -0.272 | 86.3 | 71.5 | inactive
LONRF3 (LON peptidase N-terminal domain and ring finger 3) | 3 | -0.193 | 110 | 95.8 | inactive
LONRF3 (LON peptidase N-terminal domain and ring finger 3) | 4 | 0.0726 | 84.6 | 89 | inactive
TNFRSF18 (TNF receptor superfamily member 18) | 1 | -0.158 | 29.2 | 26.2 | inactive
TNFRSF18 (TNF receptor superfamily member 18) | 2 | 0.293 | 33.6 | 41.1 | inactive
TNFRSF18 (TNF receptor superfamily member 18) | 3 | -0.463 | 51.6 | 37.5 | inactive
TNFRSF18 (TNF receptor superfamily member 18) | 4 | -0.204 | 108 | 94.2 | inactive
ADAMTS5 (ADAM metallopeptidase with thrombospondin type 1 motif 5) | 1 | -0.111 | 93.2 | 86.2 | inactive
ADAMTS5 (ADAM metallopeptidase with thrombospondin type 1 motif 5) | 2 | -0.201 | 105 | 91.7 | inactive
ADAMTS5 (ADAM metallopeptidase with thrombospondin type 1 motif 5) | 3 | -0.145 | 69.9 | 63.2 | inactive
ADAMTS5 (ADAM metallopeptidase with thrombospondin type 1 motif 5) | 4 | -0.266 | 101 | 83.8 | inactive
WDR3 (WD repeat domain 3) | 1 | -0.15 | 102 | 91.6 | inactive
WDR3 (WD repeat domain 3) | 2 | -0.43 | 74.6 | 55.4 | inactive
WDR3 (WD repeat domain 3) | 3 | -0.283 | 37.1 | 30.5 | inactive
WDR3 (WD repeat domain 3) | 4 | -0.237 | 68.6 | 58.2 | inactive
IKBKG | 1 | -0.285 | 105 | 85.9 | inactive
IKBKG | 2 | 0.358 | 26.5 | 34 | inactive
IKBKG | 3 | -0.0054 | 82.2 | 81.9 | inactive
IKBKG | 4 | -0.731 | 87.7 | 52.8 | inactive
INHBB (inhibin subunit beta B) | 1 | -0.761 | 60.8 | 35.9 | inactive
INHBB (inhibin subunit beta B) | 2 | -0.153 | 123 | 111 | inactive
INHBB (inhibin subunit beta B) | 3 | -0.235 | 84.2 | 71.5 | inactive
PLA2G2D (phospholipase A2 group IID) | 1 | 0.212 | 77.4 | 89.6 | inactive
PLA2G2D (phospholipase A2 group IID) | 2 | -0.0591 | 87.6 | 84.1 | inactive
PLA2G2D (phospholipase A2 group IID) | 3 | 0.95 | 15.1 | 29.1 | inactive
PLA2G2D (phospholipase A2 group IID) | 4 | -0.261 | 104 | 86.6 | inactive
NPFF (neuropeptide FF-amide peptide precursor) | 1 | 0.0519 | 69.7 | 72.3 | inactive
NPFF (neuropeptide FF-amide peptide precursor) | 2 | -0.404 | 77.9 | 58.9 | inactive
NPFF (neuropeptide FF-amide peptide precursor) | 3 | 0.195 | 70.6 | 80.9 | inactive
NPFF (neuropeptide FF-amide peptide precursor) | 4 | 0.0337 | 95.6 | 97.9 | inactive
ATP13A4 (ATPase 13A4) | 1 | -0.152 | 71.3 | 64.1 | inactive
ATP13A4 (ATPase 13A4) | 2 | 0.0391 | 45.5 | 46.7 | inactive
ATP13A4 (ATPase 13A4) | 3 | 0.121 | 100 | 109 | inactive
